The text below walks through data of publication PMC7311471, “The iron–sulphur cluster in human DNA2 is required for all biochemical activities of DNA2”.

The chains behind the UniProt entries cited, without tags or fusion partners. Where a name states a change or a piece, a line headed by the entry shows the natural chain unless it says otherwise.
UniProt Q96T76: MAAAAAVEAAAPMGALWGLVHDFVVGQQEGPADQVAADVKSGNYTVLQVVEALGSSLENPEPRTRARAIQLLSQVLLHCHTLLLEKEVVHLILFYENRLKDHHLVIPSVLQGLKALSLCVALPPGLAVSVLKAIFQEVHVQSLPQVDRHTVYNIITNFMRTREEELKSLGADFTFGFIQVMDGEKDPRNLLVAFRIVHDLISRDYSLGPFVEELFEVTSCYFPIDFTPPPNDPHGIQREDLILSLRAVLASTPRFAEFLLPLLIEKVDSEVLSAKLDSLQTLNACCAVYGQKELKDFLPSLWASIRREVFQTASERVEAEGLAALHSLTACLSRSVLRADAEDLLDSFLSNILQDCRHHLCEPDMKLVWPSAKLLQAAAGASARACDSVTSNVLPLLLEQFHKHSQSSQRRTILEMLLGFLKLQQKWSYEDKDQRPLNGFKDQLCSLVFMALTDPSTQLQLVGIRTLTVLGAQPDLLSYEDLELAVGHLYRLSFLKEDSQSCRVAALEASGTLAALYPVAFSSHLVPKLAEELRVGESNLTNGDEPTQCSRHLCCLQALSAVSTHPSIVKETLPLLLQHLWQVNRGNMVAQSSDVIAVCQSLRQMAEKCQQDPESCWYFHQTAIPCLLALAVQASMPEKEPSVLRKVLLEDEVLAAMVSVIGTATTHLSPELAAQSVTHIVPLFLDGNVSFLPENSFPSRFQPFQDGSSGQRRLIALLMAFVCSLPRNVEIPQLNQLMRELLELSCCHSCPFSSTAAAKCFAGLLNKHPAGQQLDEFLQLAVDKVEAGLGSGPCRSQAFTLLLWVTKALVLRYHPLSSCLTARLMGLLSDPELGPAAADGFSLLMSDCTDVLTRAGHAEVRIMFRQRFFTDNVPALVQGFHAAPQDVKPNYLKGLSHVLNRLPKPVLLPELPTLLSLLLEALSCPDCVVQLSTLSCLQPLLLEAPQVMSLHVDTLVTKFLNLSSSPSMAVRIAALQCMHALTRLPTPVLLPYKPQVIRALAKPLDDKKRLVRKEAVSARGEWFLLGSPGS

One assay concerns the target T1, FLAG-DNA2 C136S (human) (UniProt P51530).
T1 sequence: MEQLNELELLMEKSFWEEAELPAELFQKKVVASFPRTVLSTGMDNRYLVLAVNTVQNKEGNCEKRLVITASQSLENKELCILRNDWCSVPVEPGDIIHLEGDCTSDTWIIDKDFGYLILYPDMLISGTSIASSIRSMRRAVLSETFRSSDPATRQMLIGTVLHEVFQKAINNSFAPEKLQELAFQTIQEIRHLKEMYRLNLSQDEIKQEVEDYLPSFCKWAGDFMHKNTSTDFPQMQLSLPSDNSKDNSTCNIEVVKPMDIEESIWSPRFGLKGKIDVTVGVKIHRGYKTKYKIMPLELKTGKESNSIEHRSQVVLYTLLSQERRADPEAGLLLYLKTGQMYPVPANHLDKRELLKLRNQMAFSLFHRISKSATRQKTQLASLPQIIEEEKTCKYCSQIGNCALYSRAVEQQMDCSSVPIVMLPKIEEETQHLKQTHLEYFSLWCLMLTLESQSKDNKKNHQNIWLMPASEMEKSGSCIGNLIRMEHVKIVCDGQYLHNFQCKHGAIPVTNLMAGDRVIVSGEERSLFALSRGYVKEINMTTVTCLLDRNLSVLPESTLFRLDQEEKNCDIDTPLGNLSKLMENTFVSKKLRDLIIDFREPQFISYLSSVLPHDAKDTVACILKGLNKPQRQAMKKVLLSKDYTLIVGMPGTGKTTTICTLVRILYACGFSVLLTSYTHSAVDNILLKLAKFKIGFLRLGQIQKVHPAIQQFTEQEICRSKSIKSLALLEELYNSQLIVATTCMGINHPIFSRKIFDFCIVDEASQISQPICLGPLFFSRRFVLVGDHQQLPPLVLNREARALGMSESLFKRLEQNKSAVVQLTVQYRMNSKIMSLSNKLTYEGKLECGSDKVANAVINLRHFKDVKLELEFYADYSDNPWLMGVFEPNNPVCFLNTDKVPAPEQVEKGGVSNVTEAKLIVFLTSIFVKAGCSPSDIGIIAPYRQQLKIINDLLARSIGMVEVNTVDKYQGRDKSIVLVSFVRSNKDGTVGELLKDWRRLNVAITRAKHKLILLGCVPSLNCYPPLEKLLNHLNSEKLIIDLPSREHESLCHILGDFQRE
Briefly: co-IP; FLAG-DNA2 variants over-expressed in HEK293T as bait, anti-FLAG M2 beads 1 h at 4 °C; lysis in 100 mM NaCl, 50 mM Tris-HCl pH 8.0, 10% glycerol, 1 mM EDTA, 0.1% NP-40, 2 mM DTT, Benzonase; eluted with 3x FLAG peptide; Western blot for endogenous MMS19, CIAO1, MIP18. For orientation: In western blotting, separated proteins are transferred to a membrane and probed.

The target of the next assay is T2, FLAG-DNA2 C396S (human) (UniProt P51530).
T2 sequence: T1 sequence with S136C, C396S
The assay is described as above.

The next assay addresses T3, YFP-DNA2 (WT) (human) (UniProt P51530).
T3 sequence: T1 sequence with S136C
Briefly: pull-down; YFP-DNA2 (WT/C396S) from HEK293T lysate held on GFP-Trap agarose and washed; 50 μl of 25 nM purified FLAG-tagged DNA2 (WT or C396S) added, 1 h at 4 °C; wash 100 mM NaCl, 50 mM Tris-HCl pH 8.0, 10% glycerol, 1 mM EDTA, 0.1% NP-40, 2 mM DTT; Western blot; only the binder purified.

For another assay, the target named is T4, YFP-DNA2 C396S (human) (UniProt P51530).
T4 sequence: T1 sequence with S136C, C396S
The description is as above.

Residue numbers refer to the chain shown, from its start. In names and notes the source's numbering stands. No constants are given. Whether binding was seen depends on the method and setting. Binding seen in cells or lysates may run through a third protein. Some entries that bind do so weakly or less than the wild type. Sequences can lack the tags named with a protein.

With “CIA-targeting complex (MMS19, CIAO1, MIP18) (from UniProt Q96T76 1-1030; O76071 1-339; Q9Y3D0 1-163)”, the binding entry in the assay with FLAG-DNA2 C136S (human) and in the assay with FLAG-DNA2 C396S (human) was “binds” each time.

B1: purified FLAG-tagged wild-type DNA2 (His6-DNA2-FLAG) (enzyme, UniProt P51530 1-1060)
chain: T1 sequence with S136C
In the case of B1, in the assay with YFP-DNA2 (WT) (human), the binding result is “no binding (tested: 25 nM)”.

B2: purified FLAG-tagged DNA2 C396S (His6-DNA2-FLAG C396S) (enzyme, UniProt P51530 1-1060)
chain: T1 sequence with S136C, C396S
With B2, the binding result with YFP-DNA2 C396S (human) is “no binding (tested: 25 nM)”.
